Assay results as given in PubChem BioAssay AID2284345 (EPA ToxCast).
Inconclusive means that the source gave no clear call. Such entries were picked first, then a sample of the others. Potencies beside an inconclusive call are fits to weak or partial responses and may not hold up. The source made the active and inactive calls. Rule for the calls: active = hit-call score of the fitted dose curve at least 0.9, where 1 is the maximum; inconclusive = response in the unintended direction; inactive = score below 0.9.

tested on: zebrafish Glucocorticoid Receptor (GR), gene 553740; test: ATG_zfGR_EcoTox2: Attagene TRANS-FACTORIAL EcoTox-2 HepG2 Assay for zebrafish Glucocorticoid Receptor (GR)
Description: ATG_EcoTox2 is a cell-based, multiplexed assay created by modifying the existing Attagene TRANS-FACTORIAL system to include a panel of nuclear receptors from some or all the following species: human (Homo sapiens), african clawed frog (Xenopus laevis), rainbow trout (Oncorhynchus mykiss), japanese medaka (Oryzias latipes), and zebrafish (Danio rerio). The ECOTOX2-FACTORIAL format uses HepG2, a human liver cell line, with measurements taken at 24 hours after chemical dosing in a 24-well plate. ATG_zfGR_EcoTox2 is one of 29 assay components calculated in the ATG_EcoTox2 assay. It is designed to make measurements of mRNA induction, a form of inducible reporter, as detected with fluorescence intensity signals by Reverse transcription polymerase chain reaction (RT-PCR) and Capillary electrophoresis technology.The assay endpoint ATG_zfGR_EcoTox2 was analyzed in the positive analysis fitting direction relative to DMSO as the negative control and baseline of activity. Using a type of inducible reporter, measures of mRNA for gain-of-signal activity can be used to understand the reporter gene at the transcription factor-level as they relate to the gene for glucocorticoid receptor. Furthermore, this assay endpoint can be referred to as a primary readout, because this assay has produced multiple assay endpoints where this one serves a reporter gene function. To generalize the intended target to other relatable targets, this assay endpoint is annotated to the nuclear receptor intended target family, where the subfamily is steroidal.
Human liver HepG2 cells are transiently transfected with multiple reporter transcription units (MRTUs) in 6-well plates using FuGene 6 reagent (Roche; 3 ml FuGene/1 mg DNA). The MRTU constructs are regulated by a cis-regulating element (promoter). Each RTU expresses a GAL4-UAS that regulates the transcription of a nearby target reporter gene sequence. A major difference between the CIS and TRANS system is that in CIS activities of endogenous TFs are measured, whereas the TRANS assay evaluates changes in activities of exogenous, chimeric NR-Gal4 proteins. […] At the end of 24 hour incubation, total RNA was isolated using TriZol reagent (Invitrogen). The isolated RNA is then reverse-transcribed using oligo(dT) primer and Mo-MLV reverse transcriptase (Invitrogen) with DNAse I (Ambion) treatment for 30 min. The one-tenth of the produced cDNA was amplified by PCR using Taq DNA polymerase (Invitrogen) and two reporter sequence-specific primers. The PCR products were fluorescently labeled by primer extension with 6-arboxyfluorescein (6-FAM) 5'-labeled reporter sequence-specific primer (2 min at 95 C, 20 s at 68 C and 10 min at 72 C) and these products were digested with 5U of HpaI (New England Biolabs) for 2h at 37 C. The fragments were purified using Qiaquick PCR columns (Qiagen), analyzed on an ABI 3130xL genetic analyzer (Applied Biosystems) with peak positions identified by using a set of X-rhodamine (ROX)-labeled MapMarker1000 molecular weight standards (BioVentures). The raw capillary electrophoresis data was processed using Attagraph software (Attagene).

| SMILES | AC50 | outcome |
| --- | --- | --- |
| Cc1cccc(Nc2cc(Cl)nc(SCC(=O)O)n2)c1C | inconclusive: 26.6 µM | – |
| CC(C)(Oc1ccc(CCNC(=O)c2ccc(Cl)cc2)cc1)C(=O)O | inconclusive: 100 µM | – |
| C[C@]12C=CC(=O)C=C1CC[C@@H]1[C@@H]2C(=O)C[C@@]2(C)[C@H]1CC[C@]2(O)C(=O)CO | – | inactive |
| CN(CCOc1ccc(CC2SC(=O)NC2=O)cc1)c1ccccn1 (centres undefined) | – | inactive |
| C[C@@H]1C[C@H]2[C@@H]3CCC4=CC(=O)C=C[C@]4(C)[C@@]3(F)[C@@H](O)C[C@]2(C)[C@@]1(O)C(=O)COP(=O)(O)O | active: 0.00457 µM | – |
| CC(C)(Oc1ccc(C2CC2(Cl)Cl)cc1)C(=O)O (centres undefined) | inconclusive: 30.7 µM | – |
| CC(c1cc2ccccc2s1)N(O)C(N)=O (centres undefined) | inconclusive: 50 µM | – |
| Cc1nc(-c2ccc(C(F)(F)F)cc2)sc1C(=O)NCc1ccc(OC(C)(C)C(=O)O)cc1 | inconclusive: 0.485 µM | – |
| C=C(c1ccc(C(=O)O)cc1)c1cc2c(cc1C)C(C)(C)CCC2(C)C | inconclusive: 9.15 µM | – |
